Source: patent US20200277377A1

Legend:
Test in all cases: ELISA, coated antigen 2 µg/mL
CD22.ECD = target: CD22.ECD
FGFR-ECD = target: FGFR-ECD
Factor VIII = target: Factor VIII
OX40.ECD = target: OX40.ECD
VEGF = target: VEGF

Measured: binding

B1: W3162_1.154.8-z35-uAb.IgG1K (antibody, V domains shown)
VH: QVQLVQSGAEVKKPGSSVKVSCKASGYTFTNYFMNWVRQAPGQGLEWMGRVDPEQGRADYAEKFKKRVTITADKSTSTAYMELSSLRSEDTAVYYCARRAMDNYGFAYWGQGTLVTVSS
VL: EIVLTQSPDFQSVTPKEKVTITCSANSALSYMYWYQQKPDQSPKLWVHGTSNLASGVPSRFSGSGSGTDFTLTINSLEAEDAATYYCHHWSNTQWTFGGGTKVEIK
no binding (tested: 10 µg/mL): CD22.ECD | FGFR-ECD | Factor VIII | OX40.ECD | VEGF

B2: W3162-1.146.19-z12-uAb.IgG1K (antibody, V domains shown)
VH: QVQLQESGPGLVKPSETLSLTCSVTYHTITSGYDWTWIRKPPGKGMEWIGYISYSGNTNYNPSLKSRVTISRDTSKNQFFLKLSSVTAADTAVYYCASMMVPHYYVMDAWGQGTLVTVSS
VL: DIVMTQTPLSLSVTPGQPASISCRSSQSLLNSDGNTYLYWYLQKPGQSPQLLIYLVSKLGSGVPNRFSGSGSGTDFTLKISRVEAEDVGVYYCVQGTHDPWTFGGGTKVEIK
no binding (tested: 10 µg/mL): CD22.ECD | FGFR-ECD | Factor VIII | OX40.ECD | VEGF

These are yes or no findings as the source states them, for the method shown.
